Source: article PMC9275142
No constants are given. Whether binding was seen depends on the method and setting. In cells and extracts the contact can be indirect. Some entries that bind do so weakly or less than the wild type. For part of these data: Tags and fused reporters may be left off the sequences shown. One block for each molecule: values may come before it.

By UniProt entry, the sequences of proteins in these tests, tags left out.
UniProt Q9GZV5: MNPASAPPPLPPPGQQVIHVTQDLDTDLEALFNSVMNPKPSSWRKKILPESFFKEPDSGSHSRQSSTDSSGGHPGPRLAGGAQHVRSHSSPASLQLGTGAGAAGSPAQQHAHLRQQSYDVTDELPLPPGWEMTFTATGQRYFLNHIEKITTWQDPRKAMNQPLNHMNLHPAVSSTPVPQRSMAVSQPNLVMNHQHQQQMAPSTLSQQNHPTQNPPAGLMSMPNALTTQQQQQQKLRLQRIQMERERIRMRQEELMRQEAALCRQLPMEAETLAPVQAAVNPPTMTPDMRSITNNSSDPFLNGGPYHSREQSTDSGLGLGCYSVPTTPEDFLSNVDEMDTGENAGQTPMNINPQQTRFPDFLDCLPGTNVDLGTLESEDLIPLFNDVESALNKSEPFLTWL

What was measured:
Flag-DUB1 full length = target: T1, Flag-DUB1 full length (UniProt Q9P275); assay: co-IP; HEK293 transfected with Flag-DUB1 and Myc-TAZ (full length or deletion mutants); NP-40 lysis buffer; IP with anti-Flag (Fig. 5G)
T1 sequence: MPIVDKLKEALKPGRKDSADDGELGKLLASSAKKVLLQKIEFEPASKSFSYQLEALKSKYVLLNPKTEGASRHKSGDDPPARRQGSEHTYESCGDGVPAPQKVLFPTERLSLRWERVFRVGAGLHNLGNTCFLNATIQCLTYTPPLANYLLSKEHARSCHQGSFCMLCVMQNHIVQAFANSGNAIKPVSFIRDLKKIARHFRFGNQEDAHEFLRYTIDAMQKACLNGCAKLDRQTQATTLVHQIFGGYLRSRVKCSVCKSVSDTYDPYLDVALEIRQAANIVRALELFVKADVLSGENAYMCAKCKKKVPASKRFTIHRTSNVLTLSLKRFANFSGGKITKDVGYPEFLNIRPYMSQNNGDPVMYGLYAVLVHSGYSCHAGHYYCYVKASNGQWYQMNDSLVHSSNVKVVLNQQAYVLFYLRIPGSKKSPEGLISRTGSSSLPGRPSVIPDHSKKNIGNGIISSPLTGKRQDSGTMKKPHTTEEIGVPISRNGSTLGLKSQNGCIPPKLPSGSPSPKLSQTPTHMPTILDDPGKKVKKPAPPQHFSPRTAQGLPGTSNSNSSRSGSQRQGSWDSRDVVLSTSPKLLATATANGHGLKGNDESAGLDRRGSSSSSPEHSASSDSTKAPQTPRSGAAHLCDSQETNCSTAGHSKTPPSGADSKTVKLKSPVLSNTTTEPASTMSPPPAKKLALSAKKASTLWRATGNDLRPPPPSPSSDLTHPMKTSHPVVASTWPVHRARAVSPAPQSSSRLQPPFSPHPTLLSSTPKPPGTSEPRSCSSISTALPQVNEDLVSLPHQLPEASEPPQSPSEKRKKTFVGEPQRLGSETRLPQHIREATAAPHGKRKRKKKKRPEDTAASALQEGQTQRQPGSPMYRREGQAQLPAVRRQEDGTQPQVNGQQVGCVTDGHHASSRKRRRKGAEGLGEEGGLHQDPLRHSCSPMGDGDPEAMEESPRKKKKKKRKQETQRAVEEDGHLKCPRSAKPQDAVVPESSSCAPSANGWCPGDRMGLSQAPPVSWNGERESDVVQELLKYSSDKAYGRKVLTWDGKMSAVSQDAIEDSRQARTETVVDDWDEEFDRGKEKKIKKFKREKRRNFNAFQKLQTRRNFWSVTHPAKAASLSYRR

[1] = target: T2, DUB1 (also called USP36), endogenous (human (endogenous in MGC803)) (UniProt Q9P275); assay: co-IP; endogenous proteins; MGC803 lysate (RIPA lysis buffer) precleared with rabbit IgG, immunoprecipitated with anti-DUB1 overnight, rabbit IgG as negative control, blot with anti-TAZ
T2 sequence: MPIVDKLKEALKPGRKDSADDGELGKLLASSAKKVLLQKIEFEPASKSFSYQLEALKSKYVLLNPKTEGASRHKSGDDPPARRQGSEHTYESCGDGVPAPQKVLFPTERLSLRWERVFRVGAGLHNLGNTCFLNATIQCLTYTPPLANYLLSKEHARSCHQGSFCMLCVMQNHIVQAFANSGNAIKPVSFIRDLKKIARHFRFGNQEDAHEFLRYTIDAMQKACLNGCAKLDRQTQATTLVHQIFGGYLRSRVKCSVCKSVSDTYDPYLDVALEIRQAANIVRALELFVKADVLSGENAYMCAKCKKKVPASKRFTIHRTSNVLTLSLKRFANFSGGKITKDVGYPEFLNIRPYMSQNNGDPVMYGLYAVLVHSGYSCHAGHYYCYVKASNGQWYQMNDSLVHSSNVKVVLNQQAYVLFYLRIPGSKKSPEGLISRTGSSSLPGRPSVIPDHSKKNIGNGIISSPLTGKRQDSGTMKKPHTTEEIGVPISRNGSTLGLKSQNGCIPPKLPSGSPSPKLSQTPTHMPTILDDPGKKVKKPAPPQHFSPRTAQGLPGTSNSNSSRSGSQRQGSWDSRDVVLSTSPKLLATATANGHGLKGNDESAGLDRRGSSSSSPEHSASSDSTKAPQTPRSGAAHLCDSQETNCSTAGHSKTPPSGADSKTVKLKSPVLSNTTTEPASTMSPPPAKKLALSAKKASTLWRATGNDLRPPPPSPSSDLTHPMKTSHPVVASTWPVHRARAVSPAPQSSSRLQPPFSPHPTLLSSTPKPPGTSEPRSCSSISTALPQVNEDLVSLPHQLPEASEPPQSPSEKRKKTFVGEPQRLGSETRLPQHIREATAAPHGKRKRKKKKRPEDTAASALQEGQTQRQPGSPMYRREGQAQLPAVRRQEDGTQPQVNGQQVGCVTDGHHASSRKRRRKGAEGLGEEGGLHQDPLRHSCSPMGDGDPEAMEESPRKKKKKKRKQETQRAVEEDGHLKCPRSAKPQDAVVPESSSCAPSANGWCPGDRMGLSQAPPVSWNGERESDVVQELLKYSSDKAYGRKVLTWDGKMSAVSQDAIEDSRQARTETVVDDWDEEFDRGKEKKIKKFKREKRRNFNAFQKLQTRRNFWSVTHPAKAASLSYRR

Myc-TAZ full length = Myc-TAZ full length (UniProt Q9GZV5); assay: co-IP; HEK293 transfected with Myc-TAZ and Flag-DUB1 (full length or domains); NP-40 lysis buffer; IP with anti-Myc, blot with anti-Flag (Fig. 5F)

binding (Flag-DUB1 full length): binds
Molecule: Myc-TAZ full length (from UniProt Q9GZV5 1-400)

binding [1]: binds
Molecule: TAZ (Transcriptional Co-Activator With PDZ-Binding Motif), endogenous (from UniProt Q9GZV5 1-400)

binding (Myc-TAZ full length): binds
B1: Flag-DUB1 full length (enzyme, UniProt Q9P275 1-1123)
chain: MPIVDKLKEALKPGRKDSADDGELGKLLASSAKKVLLQKIEFEPASKSFSYQLEALKSKYVLLNPKTEGASRHKSGDDPPARRQGSEHTYESCGDGVPAPQKVLFPTERLSLRWERVFRVGAGLHNLGNTCFLNATIQCLTYTPPLANYLLSKEHARSCHQGSFCMLCVMQNHIVQAFANSGNAIKPVSFIRDLKKIARHFRFGNQEDAHEFLRYTIDAMQKACLNGCAKLDRQTQATTLVHQIFGGYLRSRVKCSVCKSVSDTYDPYLDVALEIRQAANIVRALELFVKADVLSGENAYMCAKCKKKVPASKRFTIHRTSNVLTLSLKRFANFSGGKITKDVGYPEFLNIRPYMSQNNGDPVMYGLYAVLVHSGYSCHAGHYYCYVKASNGQWYQMNDSLVHSSNVKVVLNQQAYVLFYLRIPGSKKSPEGLISRTGSSSLPGRPSVIPDHSKKNIGNGIISSPLTGKRQDSGTMKKPHTTEEIGVPISRNGSTLGLKSQNGCIPPKLPSGSPSPKLSQTPTHMPTILDDPGKKVKKPAPPQHFSPRTAQGLPGTSNSNSSRSGSQRQGSWDSRDVVLSTSPKLLATATANGHGLKGNDESAGLDRRGSSSSSPEHSASSDSTKAPQTPRSGAAHLCDSQETNCSTAGHSKTPPSGADSKTVKLKSPVLSNTTTEPASTMSPPPAKKLALSAKKASTLWRATGNDLRPPPPSPSSDLTHPMKTSHPVVASTWPVHRARAVSPAPQSSSRLQPPFSPHPTLLSSTPKPPGTSEPRSCSSISTALPQVNEDLVSLPHQLPEASEPPQSPSEKRKKTFVGEPQRLGSETRLPQHIREATAAPHGKRKRKKKKRPEDTAASALQEGQTQRQPGSPMYRREGQAQLPAVRRQEDGTQPQVNGQQVGCVTDGHHASSRKRRRKGAEGLGEEGGLHQDPLRHSCSPMGDGDPEAMEESPRKKKKKKRKQETQRAVEEDGHLKCPRSAKPQDAVVPESSSCAPSANGWCPGDRMGLSQAPPVSWNGERESDVVQELLKYSSDKAYGRKVLTWDGKMSAVSQDAIEDSRQARTETVVDDWDEEFDRGKEKKIKKFKREKRRNFNAFQKLQTRRNFWSVTHPAKAASLSYRR
